According to the odorant receptor screen of Mainland et al. (2015):
“And” between values parts separate entries of the source, which are not always exact repeats. Identical values can stand only once. Some of the results follow. Single wells; the ratio to wells without odorant was worked out here, and repeats agree poorly.

Experiments:
Test in all cases: odorant receptor activation (CRE luciferase / Renilla) (fold of no-odor wells); higher = more activation
Settings in all cases: 100 µM
[1] = test system: OR52N4 T106I/L167R/N218I clone 1127
OR52N5 clone 1238 = test system: OR52N5 clone 1238
OR52P1 clone 1221 = test system: OR52P1 clone 1221
[2] = test system: OR52R1 I129T/N201Y/S245A clone 1705
OR52W1 clone 1234 = test system: OR52W1 clone 1234
OR56A1 clone 1114 = test system: OR56A1 clone 1114
OR56A3 M51T clone 1128 = test system: OR56A3 M51T clone 1128
OR56A4 clone 1724 = test system: OR56A4 clone 1724
OR56A5 clone 1708 = test system: OR56A5 clone 1708
OR56B1 C106R clone 1168 = test system: OR56B1 C106R clone 1168
OR56B4 P277S clone 1224 = test system: OR56B4 P277S clone 1224
OR5A1 I52V clone 1131 = test system: OR5A1 I52V clone 1131
OR5A1 clone 1130 = test system: OR5A1 clone 1130
OR5A1 clone 1507 = test system: OR5A1 clone 1507
OR5A2 clone 1132 = test system: OR5A2 clone 1132
OR5AC2 M200I clone 1490 = test system: OR5AC2 M200I clone 1490
OR5AK2 M92I clone 1335 = test system: OR5AK2 M92I clone 1335
OR5AK2 clone 1438 = test system: OR5AK2 clone 1438
OR5AK3 clone 1336 = test system: OR5AK3 clone 1336
OR5AL1 clone 1362 = test system: OR5AL1 clone 1362

| SMILES | odorant receptor activation [1] | odorant receptor activation (OR52N5 clone 1238) | odorant receptor activation (OR52P1 clone 1221) | odorant receptor activation [2] | odorant receptor activation (OR52W1 clone 1234) | odorant receptor activation (OR56A1 clone 1114) | odorant receptor activation (OR56A3 M51T clone 1128) | odorant receptor activation (OR56A4 clone 1724) | odorant receptor activation (OR56A5 clone 1708) | odorant receptor activation (OR56B1 C106R clone 1168) | odorant receptor activation (OR56B4 P277S clone 1224) | odorant receptor activation (OR5A1 I52V clone 1131) | odorant receptor activation (OR5A1 clone 1130) | odorant receptor activation (OR5A1 clone 1507) | odorant receptor activation (OR5A2 clone 1132) | odorant receptor activation (OR5AC2 M200I clone 1490) | odorant receptor activation (OR5AK2 M92I clone 1335) | odorant receptor activation (OR5AK2 clone 1438) | odorant receptor activation (OR5AK3 clone 1336) | odorant receptor activation (OR5AL1 clone 1362) |
| --- | --- | --- | --- | --- | --- | --- | --- | --- | --- | --- | --- | --- | --- | --- | --- | --- | --- | --- | --- | --- |
| CC1=CCC(C(C)(C)O)CC1 (stereo not given) [terpineol] | 0.969 | 1.23 | 0.895 | 0.793 | 1.06 | 1.16 | 1.44 | 0.994 | 1.12 | 1.44 | 1.1 | 1.11 | 1.54 | 0.713 | 1.28 | 0.797 | 0.989 | 1.28 | 1.14 | 1.09 |
| CC12CCC(C1)C(C)(C)C2=O (stereo not given) [fenchone] | 1.36 | 1.08 | 0.861 | 0.717 | 0.962 | 0.804 | 1.02 | 0.627 | 0.689 | 0.989 | 0.993 | 0.956 | 0.983 | 1.22 | 1.14 | 1.24 | 0.959 | 0.969 | 0.885 | 0.842 |
| CCCCCCCOC(C)=O [heptyl acetate] | 1.25 | 0.876 | 0.907 | 0.766 | 1.03 | 0.799 | 1.27 | 0.792 | 0.572 | 1.06 | 1.01 | 1.12 | 1.03 | 0.813 and 1.42 | 1.01 | 0.831 and 1.16 | 1.8 and 1.08 | 0.993 | 1.34 and 0.954 | 1.21 |
| CCCCCCCC=O [octyl aldehyde] | 0.866 | 0.854 | 1.1 | 1.09 | 0.842 | 1.04 | 1.24 | 0.639 | 1.16 | 1.08 | 0.92 | 0.803 | 1.02 | 1.15 | 1.05 | 0.918 | 1.18 | 1.09 | 1.02 | 1.18 |
| CCCCCCOC(=O)CCC [hexyl butyrate] | 1.26 | 0.878 | 0.777 | 0.638 | 1.08 | 0.817 | 1.25 | 0.832 | 0.53 | 1.21 | 1.03 | 1.24 | 0.977 | 1.11 and 0.855 | 0.927 | 0.936 and 0.873 | 1.46 and 0.885 | 0.769 | 1.34 and 0.756 | 0.938 |
| CC(=O)OC1CC2CCC1(C)C2(C)C (stereo not given) [isobornyl acetate] | 0.916 | 0.911 | 0.885 | 0.963 | 0.67 | 0.811 | 1.34 | 0.745 | 1.04 | 1.14 | 0.844 | 1.45 | 1.01 | 0.92 and 1.05 | 1.01 | 0.632 and 1.27 | 1.81 and 0.986 | 0.845 | 1.57 and 0.532 | 0.883 |
| CC(C)CC(=O)O [isovaleric acid] | 1.32 | 1.11 | 1.2 | 1.07 | 0.942 | 0.775 | 1.32 | 0.837 | 1.44 | 0.955 | 1.11 | 1.11 | 1.34 | 0.949 | 1.03 | 0.875 | 0.861 | 0.899 | 0.825 | 1.32 |
| CCCCCOC(C)=O [n-amyl acetate] | 0.98 | 1.05 | 0.598 | 0.95 | 1.27 | 0.576 | 0.501 | 0.923 | 1.02 | 0.574 | 0.66 | 0.486 | 0.756 | 0.87 and 0.771 | 0.704 | 0.621 and 0.959 | 0.569 | 0.841 | 0.653 | 0.914 |
| CCCCCCCCCCC=O [undecanal] | 1.04 | 1.16 | 0.906 | 0.922 | 1.7 | 1.8 | 0.987 | 10.8 | 1.26 | 1.21 | 0.9 | 0.88 | 1.31 | 0.966 | 0.948 | 1.03 | 0.936 | 1.42 | 1.04 | 1.07 |
| O=C1CCCCCCCCCCCCCCO1 [pentadecalactone] | 1.01 | 0.831 | 0.705 | 1.24 | 0.989 | 1.31 | 1.01 | 0.587 | 1.05 | 0.842 | 0.774 | 0.78 | 1.15 | 0.816 | 0.852 | 1.22 | 0.807 | 1.2 | 0.888 | 0.956 |
| CCCCCCCC=CC=O [2-decenal] | 0.928 | 0.925 | 0.849 | 1.26 | 1.19 | 22.3 | 1.6 | 1.93 | 1.21 | 0.853 | 0.91 | 0.786 | 1.53 | 1.49 | 1.22 | 1.3 | 0.593 | 1.29 | 1.31 | 2.38 |
| O=C1CCCCCCCCCCCC(=O)OCCO1 [ethylene brassylate] | 0.74 | 1.76 | 1.72 | 1.59 | 1.11 | 1.19 | 2.01 | 1.48 | 1.24 | 1.87 | 1.68 | 1.39 | 1.71 | 1.12 | 1.86 | 1.22 | 1.46 | 1.97 | 1.33 | 1.34 |
| CC(C)C=O [isobutyraldehyde] | 1.07 | 0.839 | 1.18 | 0.974 | 0.643 | 1.14 | 1.63 | 0.759 | 1.12 | 1.15 | 1.09 | 1.26 | 0.914 | 1.01 and 1.09 | 0.918 | 0.762 and 1.09 | 1.53 and 1.1 | 0.829 | 1.13 and 0.647 | 0.761 |
| CC(=O)OCC=C(C)CCC=C(C)C [geranyl acetate] | 2.69 | 2.23 | 1.33 | 1.13 | 2.29 | 0.986 | 1.18 | 1.18 | 0.777 | 1.4 | 0.9 | 1.02 | 0.982 | 0.986 and 1.03 | 0.948 | 0.838 and 1.46 | 2.03 and 1.2 | 1.15 | 1.87 and 1.16 | 1.21 |
| O=CCc1ccccc1 [phenyl acetaldehyde] | 1.31 | 1.93 | 0.962 | 1.02 | 1.06 | 1.47 | 1.29 | 0.987 | 0.964 | 1.49 | 1.17 | 0.917 | 1.44 | 1.03 | 1.29 | 1.35 | 1.2 | 1.58 | 1.57 | 1.6 |
| CC(C)=CCCC(C)=CC=O [citral] | 1.26 | 1.53 | 1.07 | 1.01 | 2.15 | 0.92 | 0.896 | 0.931 | 0.897 | 1.17 | 1.21 | 1.18 | 1.03 | 1.01 | 0.946 | 0.93 | 1.04 | 0.261 | 1.43 | 0.256 |
| C=CC(C)(O)CCC=C(C)C (stereo not given) [linalool] | 0.968 | 0.762 | 0.998 | 0.945 | 0.951 | 1.09 | 1.13 | 0.822 | 1.34 | 0.909 | 0.899 | 1.08 | 1.03 | 1.11 | 0.958 | 0.892 | 0.815 | 1.2 | 0.953 | 1.12 |
| CC12CCC(CC1)C(C)(C)O2 [cineole] | 0.725 | 0.593 | 0.957 | 0.859 | 0.856 | 0.795 | 0.844 | 0.868 | 0.943 | 0.798 | 0.916 | 0.966 | 0.764 | 0.901 | 0.912 | 0.755 | 0.795 | 0.202 | 1.06 | 0.228 |
| CC(=O)C(C)=O [diacetyl] | 1.06 | 0.944 | 1.1 | 0.726 | 1.18 | 0.846 | 0.992 | 0.793 | 0.885 | 0.979 | 1.31 | 1.11 | 1.13 | 1.39 | 1.31 | 1.26 | 1.16 | 1.55 | 1.14 | 1.43 |
| c1cnccn1 [pyrazine] | 1.03 | 0.804 | 0.937 | 0.85 | 0.788 | 1.15 | 1.04 | 0.655 | 1.09 | 1.33 | 0.845 | 0.716 | 0.981 | 0.686 | 0.952 | 0.814 | 0.995 | 1.23 | 0.846 | 1.18 |
| CC1CCC(C(C)C)C(O)C1 (single isomer, unassigned; (-)) [(-)-menthol] | 0.902 | 0.556 | 0.999 | 1.13 | 1.28 | 14.9 | 1.23 | 1 | 0.986 | 0.874 | 0.892 | 1.02 | 1.17 | 2.8 | 1.19 | 1.15 | 0.752 | 0.971 | 0.692 | 0.716 |
| COc1cc(C=O)ccc1O [vanillin] | 0.86 | 0.272 | 0.987 | 0.791 | 0.878 | 1.2 | 1.09 | 0.701 | 0.811 | 1.11 | 0.851 | 0.796 | 1.32 | 1.08 | 1.01 | 1.01 | 1.23 | 1.22 | 1.15 | 0.964 |
| COc1ccccc1O [guaiacol] | 1.31 | 0.971 | 1.13 | 0.766 | 0.839 | 1.6 | 1.3 | 0.809 | 0.593 | 1.13 | 0.914 | 0.983 | 0.92 | 0.775 and 1.11 | 0.985 | 0.673 and 0.95 | 1.94 and 1.1 | 0.805 | 1.47 and 0.758 | 0.825 |
| CC(=O)OC(C)(C)C1CC=C(C)CC1 (stereo not given) [terpinyl acetate] | 1.08 | 1.19 | 1.13 | 1.2 | 0.874 | 1.48 | 1.2 | 0.958 | 1.18 | 1.41 | 1.18 | 1.3 | 1.43 | 0.886 | 1.33 | 1.1 | 0.875 | 0.944 | 0.904 | 0.896 |
| COC(=O)c1ccccc1O [methyl salicylate] | 0.917 | 0.823 | 1.01 | 1.1 | 0.67 | 1.01 | 1.08 | 0.679 | 1.15 | 0.718 | 0.792 | 0.817 | 0.885 | 1.22 | 0.764 | 0.986 | 0.944 | 1.49 | 0.864 | 1.12 |
| CC(C)CCC(=O)O [4-methylvaleric acid] | 0.902 | 0.716 | 0.965 | 0.984 | 0.815 | 11.7 | 0.817 | 1.14 | 0.996 | 0.809 | 1.11 | 0.884 | 0.943 | 0.971 | 1.71 | 0.934 | 1.05 | 1.42 | 0.999 | 1.2 |
